The experiment deals with phosphorylated Gsk3β (mouse (endogenous in mouse oocytes)) (UniProt Q9WV60). Kind of experiment: co-IP; p-Akt or p-Gsk3β antibody as bait, mouse oocyte lysate; blot with Pnma5 or p-Pnma5 antibodies (Figure 7B).

Amino acid sequences for entries named in this document (tags omitted).
UniProt Q9WV60: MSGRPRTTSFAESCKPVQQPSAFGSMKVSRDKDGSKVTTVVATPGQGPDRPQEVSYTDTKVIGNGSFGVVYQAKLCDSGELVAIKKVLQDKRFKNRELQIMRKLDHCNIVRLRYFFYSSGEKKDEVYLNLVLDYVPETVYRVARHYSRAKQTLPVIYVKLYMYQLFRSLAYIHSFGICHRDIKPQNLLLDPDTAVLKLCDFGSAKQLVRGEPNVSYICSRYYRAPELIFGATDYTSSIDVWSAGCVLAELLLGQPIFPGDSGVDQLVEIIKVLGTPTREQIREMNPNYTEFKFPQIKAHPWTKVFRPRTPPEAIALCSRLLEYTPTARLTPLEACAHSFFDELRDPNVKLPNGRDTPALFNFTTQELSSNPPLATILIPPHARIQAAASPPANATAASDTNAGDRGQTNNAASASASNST

These are yes or no findings as the source states them, for the method shown. In cells and extracts the contact can be indirect. Some binding calls cover weakened binding; strength is not graded here.

B1: phosphorylated Pnma5 (phospho-Thr553) (protein, UniProt Q5DTT8 1-618)
chain: MAVALLDDWCKGMDLDPKKAVLIVGIPVQYTEAAINDALKEGLPPLCAYKVIGRMFRREDEAKAVLIELPEVVDYTMMPTHIPAEGGAWEVVVKPRSPDDEFMNKLIYFLRDEGRRIVDVAKALGFSTVPTGKIELKNLDQDKPKGLKSLCNNSTCYKKLKVFSGSPFPGPGEESFETWLEEVTELMQLWQVSEREKKQCLLESLRGSALSIMQALWTSNDSLTVEQCLKALKHIFGNKEDSKVLQFRFLQSSQKPAEKVSDYLLRLEPLLQKAVQQSPLSAHSADSIRLKHVLSQVSMTTGLRGKLSLLDQQGCPPTFLELMKLTRDEEEWESTVVVEEQEQVRRDSSACEAANEVVTQAEDSREVSTQTTGEEMTSVKRRRLLWRHSAGEEGQRKESGFWAESEPDEQKPYVRAQESGNERGAWAVSHPNPKEIEAQDSQEFLPVAGNRDTLTKSWGSPDKGTGDMSVAEGQQGQGKAPNFLLARNDPNKQEQIPHSSVTTKWQDRGECQRLKWGASMITRPQGNPDRSWDTSGSQDGEDGCSELRMPTGTEAAQGVEEPATGLSWAEDTSAWEQARLGRETVPRRGGRRIQPVFRIIYTALGEPHEGSTLESFRE
modifications: phosphothreonine at 553 (Thr553)
As to B1, the binding entry is reported as “binds”.

B2: Pnma5 (paraneoplastic antigen MA family member 5), total Pnma5 (protein, UniProt Q5DTT8 1-618)
chain: MAVALLDDWCKGMDLDPKKAVLIVGIPVQYTEAAINDALKEGLPPLCAYKVIGRMFRREDEAKAVLIELPEVVDYTMMPTHIPAEGGAWEVVVKPRSPDDEFMNKLIYFLRDEGRRIVDVAKALGFSTVPTGKIELKNLDQDKPKGLKSLCNNSTCYKKLKVFSGSPFPGPGEESFETWLEEVTELMQLWQVSEREKKQCLLESLRGSALSIMQALWTSNDSLTVEQCLKALKHIFGNKEDSKVLQFRFLQSSQKPAEKVSDYLLRLEPLLQKAVQQSPLSAHSADSIRLKHVLSQVSMTTGLRGKLSLLDQQGCPPTFLELMKLTRDEEEWESTVVVEEQEQVRRDSSACEAANEVVTQAEDSREVSTQTTGEEMTSVKRRRLLWRHSAGEEGQRKESGFWAESEPDEQKPYVRAQESGNERGAWAVSHPNPKEIEAQDSQEFLPVAGNRDTLTKSWGSPDKGTGDMSVAEGQQGQGKAPNFLLARNDPNKQEQIPHSSVTTKWQDRGECQRLKWGASMITRPQGNPDRSWDTSGSQDGEDGCSELRMPTGTEAAQGVEEPATGLSWAEDTSAWEQARLGRETVPRRGGRRIQPVFRIIYTALGEPHEGSTLESFRE
With B2, the binding result was “binds weakly”.

The values are drawn from PMC5722525.
